PubChem BioAssay AID504774 | Drosophila RNAi Screening Center, 2011
Aim: 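Knock-downs that shift viability of MMS-exposed cells relative to untreated ones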 (primary screen). Cells: Drosophila Kc167 cells. Reagents: long dsRNA against Drosophila genes, about 0.25 µg dsRNA per well. Time to read-out: about 6 days: 3 days knock-down, then 3 days with or without MMS. Conditions: methyl methanesulphonate 0.004% (w/v) for 3 days after knock-down. Measured: 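ATP-dependent luminescence as a measure of live cells in MMS-exposed wells, quantile normalised within each plate, with replicate values also given as a mean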. Direction: mean viability with MMS: higher = more surviving cells after MMS.
The screen tested about 23,000 reagents; shown is an unselected part of those that have a named target and a result. 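Values are quantile-normalised luminescence on an arbitrary scale; higher means more cells surviving MMS.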 Reagents against one gene are numbered here. A plus sign joins genes that one reagent is predicted to hit. Not all columns of the deposit are shown.

Obp59a (GeneID 37605) → mean viability with MMS: 3.52e6
Cubn2 (GeneID 39334) #1 → mean viability with MMS: 3.59e6
Cubn2 (GeneID 39334) #2 → mean viability with MMS: 3.65e6
reb (GeneID 36275) → mean viability with MMS: 3.46e6
acs (GeneID 38264) → mean viability with MMS: 3.72e6

2 entries already listed, ordered by “mean viability with MMS”, highest first.
Cubn2 (GeneID 39334) #2 → mean viability with MMS: 3.65e6
reb (GeneID 36275) → mean viability with MMS: 3.46e6

The results go on.
CG43322 (GeneID 33984) → mean viability with MMS: 3.45e6
CG15024 (GeneID 50172) → mean viability with MMS: 3.63e6
fd3F + CG42499 (retired record) #1 → mean viability with MMS: 3.77e6
fd3F + CG42499 (retired record) #2 → mean viability with MMS: 3.64e6
CG9609 (GeneID 32663) → mean viability with MMS: 3.67e6
CG15483 (GeneID 34687) → mean viability with MMS: 3.73e6
CG14252 (GeneID 43238) → mean viability with MMS: 3.54e6
CG10931 (GeneID 37024) → mean viability with MMS: 3.50e6
Smyd3 (GeneID 44554) → mean viability with MMS: 3.52e6
